Reference: patent US11339419B2, “Scavenger protein(s) for improved preservation of analyte detection sensor(s) and method(s) of use thereof” (Siemens Healthcare Diagnostics Inc., priority 2017, dated 2022)
Several values for one entry are separate records, joined by “and”; a condition that tells them apart may be missing. Equal entries are not always repeated. This continues a long series; more values of the same kind are listed elsewhere.

Key:
Assay type in all cases: biochemical
[1] = test system: sarcosine oxidase (Toyobo); experiment: Toyobo Sarcosine Oxidase Enzyme Absorbance with BSA and Proclin 300; conditions: no Proclin 300
From the text: (§1) Absorbance measurements of the sarcosine oxidase enzyme(s) were taken via spectrophotometer for each aqueous solution (represented as columns 1-5 in Tables 1-4—column 6 is a blank), the absorbance being directly proportional to the enzyme activity being measured-which for Tables 1-4 is sarcosine oxidase enzyme activity. Accordingly, the higher the absorbance measurement, the higher the enzyme activity of sarcosine oxidase. […] In addition, the mean values, standard deviations, and coefficients of variation are also presented for the enzyme activity/absorbance of each aqueous solution. All measurements were taken at 37° C.

creatininase (Toyobo) [2] = experiment: Toyobo Creatininase Enzyme Absorbance with BSA and Proclin 300; conditions: no Proclin 300
From the text: as §1, with “creatininase” for “sarcosine oxidase”, “5-8—column” for “1-4—column”, “5-8” for “1-4”, “creatininase.” for “sarcosine oxidase.”, “all” for “also”

creatininase (Toyobo) [3] = experiment: Toyobo Creatininase Enzyme Absorbance with BSA and MIT

- Absorbance, solutions 7-11 ([1]; Day 0, BSA 5 mg/mL only, line of 1.4% Proclin 300): 1.389
- Absorbance, solutions 7-11 ([1]; Day 0, BSA 25 mg/mL only, line of 0.7% Proclin 300): 1.453 and 1.459 and 1.44
- Absorbance, solutions 7-11 ([1]; Day 0, BSA 50 mg/mL only, line of 0.7% Proclin 300): 1.427 and 1.431 and 1.446 and 1.465
- Absorbance, solutions 7-11 ([1]; Day 0, BSA 50 mg/mL only, line of 1.4% Proclin 300): 1.448 and 1.396
- Absorbance, solutions 7-11 (creatininase (Toyobo) [2]; Day 0, BSA 5 mg/mL only, listed as of 0.7% Proclin 300): 0.71 and 0.679 and 0.724 and 0.734
- Absorbance, solutions 7-11 (creatininase (Toyobo) [2]; Day 0, BSA 5 mg/mL only, listed as of 1.4% Proclin 300): 0.571
- Absorbance, solutions 7-11 (creatininase (Toyobo) [2]; Day 0, BSA 25 mg/mL only, listed as of 0.7% Proclin 300): 0.49 and 0.506 and 0.514 and 0.499
- Absorbance, solutions 7-11 (creatininase (Toyobo) [2]; Day 0, BSA 25 mg/mL only, listed as of 1.4% Proclin 300): 0.529
- Absorbance, solutions 7-11 (creatininase (Toyobo) [2]; Day 0, BSA 50 mg/mL only, listed as of 0.7% Proclin 300): 1.685 and 1.801 and 1.683 and 1.36
- Absorbance, solutions 7-11 (creatininase (Toyobo) [2]; Day 0, BSA 50 mg/mL only, listed as of 1.4% Proclin 300): 0.524 and 0.507
- Absorbance, solutions 7-11 (creatininase (Toyobo) [2]; Day 4, BSA 25 mg/mL only, listed as of 1.4% Proclin 300): 0.872 and 0.841 and 0.896 and 0.856
- Absorbance, solutions 7-11 (creatininase (Toyobo) [2]; Day 4, BSA 50 mg/mL only, listed as of 1.4% Proclin 300): 0.763 and 0.762 and 0.756 and 0.807
- Absorbance, solutions 7-11 (creatininase (Toyobo) [2]; Day 14, BSA 25 mg/mL only, listed as of 0.7% Proclin 300): 0.937 and 0.925 and 0.941
- Creatininase Enzyme Absorbance, columns 7-11 (creatininase (Toyobo) [3]; Day 0, 5 mg/mL BSA, no MIT (row of 50 ppm MIT)): 0.787 and 0.823 and 0.825
- Creatininase Enzyme Absorbance, columns 7-11 (creatininase (Toyobo) [3]; Day 0, 5 mg/mL BSA, no MIT (row of 100 ppm MIT)): 0.826
- Creatininase Enzyme Absorbance, columns 7-11 (creatininase (Toyobo) [3]; Day 0, 25 mg/mL BSA, no MIT (row of 50 ppm MIT)): 0.776 and 0.77 and 0.817 and 0.824
- Creatininase Enzyme Absorbance, columns 7-11 (creatininase (Toyobo) [3]; Day 0, 25 mg/mL BSA, no MIT (row of 100 ppm MIT)): 0.775
- Creatininase Enzyme Absorbance, columns 7-11 (creatininase (Toyobo) [3]; Day 0, 50 mg/mL BSA, no MIT (row of 50 ppm MIT)): 0.823 and 0.839 and 0.878 and 0.87
- Creatininase Enzyme Absorbance, columns 7-11 (creatininase (Toyobo) [3]; Day 0, 50 mg/mL BSA, no MIT (row of 100 ppm MIT)): 0.757
- Creatininase Enzyme Absorbance, columns 7-11 (creatininase (Toyobo) [3]; Day 14, 5 mg/mL BSA, no MIT (row of 100 ppm MIT)): 1.089 and 1.072 and 1.098 and 1.083
Substance: bovine serum albumin [BSA]
- Absorbance, solutions 7-11 ([1]; Day 4, BSA 5 mg/mL only, line of 0.7% Proclin 300): 0.829 and 0.849 and 0.854 and 0.875 and 0.878
- Absorbance, solutions 7-11 ([1]; Day 4, BSA 5 mg/mL only, line of 1.4% Proclin 300): 0.894 and 0.884 and 0.896 and 0.908 and 0.935
- Absorbance, solutions 7-11 ([1]; Day 4, BSA 25 mg/mL only, line of 0.7% Proclin 300): 1.337 and 1.353 and 1.354 and 1.335 and 1.33
- Absorbance, solutions 7-11 ([1]; Day 4, BSA 25 mg/mL only, line of 1.4% Proclin 300): 1.352 and 1.372 and 1.385 and 1.362 and 1.354
- Absorbance, solutions 7-11 ([1]; Day 4, BSA 50 mg/mL only, line of 0.7% Proclin 300): 1.354 and 1.352 and 1.35 and 1.339 and 1.371
- Absorbance, solutions 7-11 ([1]; Day 4, BSA 50 mg/mL only, line of 1.4% Proclin 300): 1.355 and 1.369 and 1.383 and 1.36 and 1.362
- Absorbance, solutions 7-11 ([1]; Day 14, BSA 5 mg/mL only, line of 0.7% Proclin 300): 0.288 and 0.295 and 0.302 and 0.314 and 0.303
- Absorbance, solutions 7-11 ([1]; Day 14, BSA 5 mg/mL only, line of 1.4% Proclin 300): 0.318 and 0.317 and 0.316 and 0.331 and 0.403
- Absorbance, solutions 7-11 ([1]; Day 14, BSA 25 mg/mL only, line of 0.7% Proclin 300): 1.371 and 1.421 and 1.363 and 1.372 and 1.401
- Absorbance, solutions 7-11 ([1]; Day 14, BSA 25 mg/mL only, line of 1.4% Proclin 300): 1.357 and 1.368 and 1.435 and 1.372 and 1.399
- Absorbance, solutions 7-11 ([1]; Day 14, BSA 50 mg/mL only, line of 0.7% Proclin 300): 1.445 and 1.544 and 1.434 and 1.475 and 1.436
- Absorbance, solutions 7-11 ([1]; Day 14, BSA 50 mg/mL only, line of 1.4% Proclin 300): 1.437 and 1.432 and 1.429 and 1.445 and 1.436
- Absorbance, solutions 7-11 (creatininase (Toyobo) [2]; Day 4, BSA 5 mg/mL only, listed as of 0.7% Proclin 300): 1.095 and 1.072 and 1.093 and 1.13 and 1.104
- Absorbance, solutions 7-11 (creatininase (Toyobo) [2]; Day 4, BSA 5 mg/mL only, listed as of 1.4% Proclin 300): 1 and 0.988 and 0.984 and 1.036 and 1.006
- Absorbance, solutions 7-11 (creatininase (Toyobo) [2]; Day 4, BSA 25 mg/mL only, listed as of 0.7% Proclin 300): 0.934 and 0.899 and 0.904 and 0.92 and 0.891
- Absorbance, solutions 7-11 (creatininase (Toyobo) [2]; Day 4, BSA 50 mg/mL only, listed as of 0.7% Proclin 300): 0.781 and 0.761 and 0.765 and 0.817 and 0.784
- Absorbance, solutions 7-11 (creatininase (Toyobo) [2]; Day 14, BSA 5 mg/mL only, listed as of 0.7% Proclin 300): 1.14 and 1.136 and 1.128 and 1.161 and 1.141
- Absorbance, solutions 7-11 (creatininase (Toyobo) [2]; Day 14, BSA 5 mg/mL only, listed as of 1.4% Proclin 300): 1.137 and 1.102 and 1.097 and 1.154 and 1.116
- Absorbance, solutions 7-11 (creatininase (Toyobo) [2]; Day 14, BSA 25 mg/mL only, listed as of 1.4% Proclin 300): 0.935 and 0.921 and 0.928 and 0.947 and 0.932
- Absorbance, solutions 7-11 (creatininase (Toyobo) [2]; Day 14, BSA 50 mg/mL only, listed as of 1.4% Proclin 300): 0.78 and 0.776 and 0.779 and 0.806 and 0.797
- Creatininase Enzyme Absorbance, columns 7-11 (creatininase (Toyobo) [3]; Day 4, 5 mg/mL BSA, no MIT (row of 50 ppm MIT)): 1.028 and 1.018 and 1.013 and 1.041 and 1.02
- Creatininase Enzyme Absorbance, columns 7-11 (creatininase (Toyobo) [3]; Day 4, 5 mg/mL BSA, no MIT (row of 100 ppm MIT)): 0.996 and 0.965 and 0.967 and 1.015 and 1.005
- Creatininase Enzyme Absorbance, columns 7-11 (creatininase (Toyobo) [3]; Day 4, 25 mg/mL BSA, no MIT (row of 50 ppm MIT)): 0.872 and 0.851 and 0.852 and 0.866 and 0.845
- Creatininase Enzyme Absorbance, columns 7-11 (creatininase (Toyobo) [3]; Day 4, 25 mg/mL BSA, no MIT (row of 100 ppm MIT)): 0.837 and 0.819 and 0.821 and 0.853 and 0.842
- Creatininase Enzyme Absorbance, columns 7-11 (creatininase (Toyobo) [3]; Day 4, 50 mg/mL BSA, no MIT (row of 50 ppm MIT)): 0.729 and 0.721 and 0.727 and 0.759 and 0.76
- Creatininase Enzyme Absorbance, columns 7-11 (creatininase (Toyobo) [3]; Day 4, 50 mg/mL BSA, no MIT (row of 100 ppm MIT)): 0.729 and 0.711 and 0.714 and 0.742 and 0.72
- Creatininase Enzyme Absorbance, columns 7-11 (creatininase (Toyobo) [3]; Day 14, 5 mg/mL BSA, no MIT (row of 50 ppm MIT)): 1.098 and 1.137 and 1.087 and 1.119 and 1.145
- Creatininase Enzyme Absorbance, columns 7-11 (creatininase (Toyobo) [3]; Day 14, 25 mg/mL BSA, no MIT (row of 50 ppm MIT)): 0.926 and 0.932 and 0.887 and 0.923 and 0.916
- Creatininase Enzyme Absorbance, columns 7-11 (creatininase (Toyobo) [3]; Day 14, 25 mg/mL BSA, no MIT (row of 100 ppm MIT)): 0.961 and 0.95 and 0.904 and 0.939 and 0.946
- Creatininase Enzyme Absorbance, columns 7-11 (creatininase (Toyobo) [3]; Day 14, 50 mg/mL BSA, no MIT (row of 50 ppm MIT)): 0.769 and 0.778 and 0.743 and 0.773 and 0.764
- Creatininase Enzyme Absorbance, columns 7-11 (creatininase (Toyobo) [3]; Day 14, 50 mg/mL BSA, no MIT (row of 100 ppm MIT)): 0.8 and 0.789 and 0.756 and 0.778 and 0.774
